Experimental findings from PMC4357705, “Human Rap1 modulates TRF2 attraction to telomeric DNA” are described below.

Amino acid sequences for entries named in this document (tags omitted). Residues count along the entry.
UniProt Q15554, 87-542, stated change not applied: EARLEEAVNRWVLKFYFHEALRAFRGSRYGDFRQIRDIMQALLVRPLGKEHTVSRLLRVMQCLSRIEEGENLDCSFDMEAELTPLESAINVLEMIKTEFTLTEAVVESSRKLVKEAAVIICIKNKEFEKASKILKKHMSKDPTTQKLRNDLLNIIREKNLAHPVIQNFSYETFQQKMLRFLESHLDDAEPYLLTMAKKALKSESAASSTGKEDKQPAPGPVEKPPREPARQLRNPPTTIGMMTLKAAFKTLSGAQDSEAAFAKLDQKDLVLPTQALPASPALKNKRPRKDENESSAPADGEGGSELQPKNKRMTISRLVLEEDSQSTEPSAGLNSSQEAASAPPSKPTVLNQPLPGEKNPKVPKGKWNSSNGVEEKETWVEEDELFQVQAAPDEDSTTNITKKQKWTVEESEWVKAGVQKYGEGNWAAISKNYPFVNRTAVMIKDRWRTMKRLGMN

Construct, isoform or probe ends are uncertain for at least one entry. For part of these data: Weaker means in comparison with the reference protein, sequence or condition of that experiment.

One data set has as its target TRF2ΔB (human) (UniProt Q15554). Nature of the data set: fluorescence anisotropy. Conditions: affinity similar to TRF2 in presence of Rap1; 3'-C6 aminoalkyl linker on one strand; FA: 50 mM NaCl, 50 mM sodium phosphate pH 7.0, 25 °C, 7.5 nM DNA; recombinant protein; label: Alexa Fluor 488 at 3' end of one strand.
For the next data set, the system named is TRF1. Nature of the data set: fluorescence anisotropy. Conditions: 3'-C6 aminoalkyl linker on one strand, FA: 50 mM NaCl, 50 mM sodium phosphate pH 7.0, 25 °C, 7.5 nM DNA, recombinant protein, label: Alexa Fluor 488 at 3' end of one strand.

As to GTTAGGGTTAGGGTTAG (double strand) [R2], the binding result with TRF2ΔB (human) is on record as “binds more weakly”; in the data set with TRF1 (with Rap1 (no complex with TRF1), no significant Kd change), “binds”; in the data set with TRF1 (without Rap1) it was “binds”.
